Assay results as given in patent US20160102139A1 (NATIONAL UNIVERSITY CORPORATION CHIBA UNIVERSITY, published 2016).
These are yes or no findings as the source states them, for the method shown. In cells and extracts the contact can be indirect. Some entries that bind do so weakly or less than the wild type. Sequences can lack the tags named with a protein.

Legend:
Assay in all cases: GST pulldown from bone marrow extract with anti-GST antibody, band identified by LC-MS/MS
[1] = molecular target: T1, mouse Myl12a (myosin regulatory light chain polypeptide 12a) (mouse) (UniProt Q3THE2)
T1 sequence: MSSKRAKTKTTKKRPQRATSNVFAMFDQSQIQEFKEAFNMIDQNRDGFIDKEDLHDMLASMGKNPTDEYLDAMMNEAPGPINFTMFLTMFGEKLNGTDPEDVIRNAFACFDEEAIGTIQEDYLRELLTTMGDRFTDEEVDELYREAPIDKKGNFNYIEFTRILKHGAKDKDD

[2] = molecular target: T2, mouse Myl12b (myosin regulatory light chain polypeptide 12b) (mouse) (UniProt Q3THE2)
T2 sequence: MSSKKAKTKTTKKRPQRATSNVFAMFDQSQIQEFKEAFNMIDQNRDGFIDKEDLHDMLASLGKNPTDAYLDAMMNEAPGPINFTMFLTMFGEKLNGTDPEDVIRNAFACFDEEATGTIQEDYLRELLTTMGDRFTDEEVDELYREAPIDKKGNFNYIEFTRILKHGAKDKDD

[3] = molecular target: T3, mouse Myl9 (myosin regulatory light chain polypeptide 9) (mouse) (UniProt Q9CQ19)
T3 sequence: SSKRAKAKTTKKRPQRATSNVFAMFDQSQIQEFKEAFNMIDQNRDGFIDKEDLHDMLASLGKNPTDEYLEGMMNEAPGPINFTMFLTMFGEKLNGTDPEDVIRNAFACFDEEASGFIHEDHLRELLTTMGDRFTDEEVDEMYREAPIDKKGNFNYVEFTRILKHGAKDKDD

Measured: binding

B1: fused protein of mouse CD69 extracellular domain protein and glutathione S-transferase (GST-mCD69EC) (receptor, UniProt P37217 62-199, looked up, not shown: a dimerising Fc or GST)
chain: NVGKYNCPGLYEKLESSDHHVATCKNEWISYKRTCYFFSTTTKSWALAQRSCSEDAATLAVIDSEKDMTFLKRYSGELEHWIGLKNEANQTWKWANGKEFNSWFNLTGSGRCVSVNHKNVTAVDCEANFHWVCSKPSR
binds: [1] | [2] | [3]
